{"source": "patent US20230220410A1", "about": "“PLANTS TOLERANT TO BROAD RANGE OF PATHOGENS” (RAMOT AT TEL-AVIV UNIVERSITY LTD., priority 2020, published 2023)", "key": {"[1]": {"tested_on": "gene expression in I3CT1^8098 (M8098) roots", "assay": "RNA-Seq transcript profiling after I3C treatment, I3CT1^8098 (M8098)", "assay_type": "in vivo, Arabidopsis thaliana", "settings": "M8098, untreated vs 200 μM I3C, 2 hours"}, "[2]": {"tested_on": "gene expression in Col-0 (WT) roots", "assay": "RNA-Seq transcript profiling after I3C treatment, WT", "assay_type": "in vivo, Arabidopsis thaliana"}, "[3]": {"settings": "untreated vs 200 μM I3C, 2 hours"}, "[4]": {"settings": "untreated vs 400 μM I3C, 2 hours"}}, "data": [{"smiles": "OCc1c[nH]c2ccccc12", "note": "[I3C, Indole 3-carbinol]", "values": [{"measurement": "number of genes with modified expression, Down, NT/200", "setting": "[1]", "value": 1910}, {"measurement": "number of genes with modified expression, Up, NT/200", "setting": "[1]", "value": 3222}, {"measurement": "number of genes involved in root development down-regulated", "setting": "[2]; 200 or 400 μM I3C, GO:0022622", "value": 66}, {"measurement": "number of genes with modified expression, Down, 200/400", "setting": "[2]; 200 vs 400 μM I3C", "value": 31}, {"measurement": "number of genes with modified expression, Up, 200/400", "setting": "[2]; 200 vs 400 μM I3C", "value": 84}, {"measurement": "number of genes with modified expression, Down, NT/200", "setting": "[2]; [3]", "value": 2904}, {"measurement": "number of genes with modified expression, Up, NT/200", "setting": "[2]; [3]", "value": 3405}, {"measurement": "number of genes with modified expression, Down, NT/400", "setting": "[2]; [4]", "value": 3697}, {"measurement": "number of genes with modified expression, Up, NT/400", "setting": "[2]; [4]", "value": 4134}]}]}
